For one molecule, binding results are on record in patent US20070015155A1.

These are yes or no findings as the source states them, for the method shown. Some results given as binding are weak or reduced against the parent protein; the word gives no strength. Tags and fused reporters may be left off the sequences shown.

Test [1] addresses mouse c-Cbl in the expression vector for the yeast two-hybrid system (mouse) (UniProt P22682). In words: yeast two-hybrid screen, mouse c-Cbl against human skeletal muscle library.
The target is the same in test [2]. In words: restates the yeast two-hybrid result of Example 1.

B1: fusion protein of the human skeletal muscle library clone containing the 55 amino acid residues on the carboxyl end of the polypeptide represented by SEQ ID … (protein, not shown: large carriers)
chain: RRRGLVMEAPQGSEATLPGPAPGEPWEAGGPHAGPPPAFFSACPVCGGLKVNPPP
With B1, the binding result in test [1] and in test [2] was “binds” in each case.
